The test has as its target T1, Suppressor of Gene Silencing 3 from Nicotiana benthamiana (NbSGS3), BiFC fusion (Nicotiana benthamiana) (UniProt X4YFK1).
T1 sequence: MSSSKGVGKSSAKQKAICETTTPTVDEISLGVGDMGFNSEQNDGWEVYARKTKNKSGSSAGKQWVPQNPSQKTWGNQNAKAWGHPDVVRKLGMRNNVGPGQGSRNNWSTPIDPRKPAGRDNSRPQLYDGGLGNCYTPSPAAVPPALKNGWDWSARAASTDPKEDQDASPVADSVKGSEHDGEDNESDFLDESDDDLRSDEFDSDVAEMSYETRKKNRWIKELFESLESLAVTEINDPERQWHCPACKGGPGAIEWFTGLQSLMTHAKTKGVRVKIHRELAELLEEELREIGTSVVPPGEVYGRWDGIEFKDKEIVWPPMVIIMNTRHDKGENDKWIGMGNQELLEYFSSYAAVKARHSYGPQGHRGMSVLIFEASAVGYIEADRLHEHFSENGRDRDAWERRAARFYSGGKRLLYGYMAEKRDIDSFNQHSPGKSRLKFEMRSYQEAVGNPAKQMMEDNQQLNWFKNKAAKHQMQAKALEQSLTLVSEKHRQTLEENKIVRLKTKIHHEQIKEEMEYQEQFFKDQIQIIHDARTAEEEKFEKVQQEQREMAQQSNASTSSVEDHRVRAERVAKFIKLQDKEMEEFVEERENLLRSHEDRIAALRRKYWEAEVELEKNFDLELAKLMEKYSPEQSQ
The test is described as follows: split reporter; BiFC with 2YN and 2YC fragments of YFP, agroinfiltrated leaves of H2B-RFP transgenic N. benthamiana, confocal microscopy at 48 hpi.

This passage reports binding results from paper PMC5333915.

Results are given in words; binding and its absence hold for the method and conditions named. In cells and extracts the contact can be indirect. Sequences can lack the tags named with a protein.

For “movement protein P3N-PIPO from Turnip mosaic virus (TuMV), BiFC fusion”, the binding result is listed as “no binding”.
